Experimental data: PubChem BioAssay AID1224830 (NIAID, 2016)
Purpose: 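Host factors that control LPS-induced TNF expression in human macrophages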 (primary screen). System: human THP-1 monocytic leukaemia cells, TNF dual-luciferase reporter clone, PMA-differentiated to macrophage-like cells. Reagent: siRNA pool against human genes, 50 nM. Time to read-out: LPS for 4 h, given about 3 days after siRNA transfection. Treatment: bacterial LPS (TLR4 ligand), 10 ng/ml. Read-out: 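TNF firefly reporter luminescence divided by renilla, normalised to the plate median, then turned into a robust z-score for each replicate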. Scale: TNF reporter robust z-score: higher = stronger TNF reporter response to LPS. Active means: 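a well is active when its z-score exceeds 2.8 or falls below -1.5; control wells carry no call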.
In all, the deposit lists about 18,000 reagents; below is a part drawn at random. About 2,900 of all reagents (16%) count as active. 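Calls are made per well; low scores hint the gene aids the LPS response, high scores that it dampens it.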 Repeated entries: four replicate wells of each siRNA pool.

no.	target gene	PubChem SID	TNF reporter robust z-score	outcome
1	NDUFAF7	SID315457647	1.06	inactive
2	NDUFAF7	SID315457647	1.09	inactive
3	NDUFAF7	SID315457647	0.96	inactive
4	NDUFAF7	SID315457647	0.42	inactive
5	OR51A7	SID315461475	0.3	inactive
6	OR51A7	SID315461475	0.04	inactive
7	OR51A7	SID315461475	-0.28	inactive
8	OR51A7	SID315461475	1.06	inactive
9	MAPK8IP3	SID315455033	3	active
10	MAPK8IP3	SID315455033	2.94	active
11	MAPK8IP3	SID315455033	0.22	inactive
12	MAPK8IP3	SID315455033	0.7	inactive
13	HHLA2	SID315454638	-0.07	inactive
14	HHLA2	SID315454638	0.23	inactive
15	HHLA2	SID315454638	0.16	inactive
16	HHLA2	SID315454638	0.18	inactive
17	SERPINE1	SID315450414	-0.16	inactive
18	SERPINE1	SID315450414	1.31	inactive
19	SERPINE1	SID315450414	2.07	inactive
20	SERPINE1	SID315450414	-0.69	inactive
21	CTU1	SID315460812	0.13	inactive
22	CTU1	SID315460812	-0.47	inactive
23	CTU1	SID315460812	-0.41	inactive
24	CTU1	SID315460812	-0.28	inactive
25	ZNF780B	SID315462777	0.35	inactive
26	ZNF780B	SID315462777	1.75	inactive
27	ZNF780B	SID315462777	0.49	inactive
28	ZNF780B	SID315462777	1.09	inactive
29	MAGEA2B	SID315463603	-0.78	inactive
30	MAGEA2B	SID315463603	-0.4	inactive
31	MAGEA2B	SID315463603	0.28	inactive
32	MAGEA2B	SID315463603	0.5	inactive
33	NPEPL1	SID315459406	0	inactive
34	NPEPL1	SID315459406	-0.31	inactive
35	NPEPL1	SID315459406	0.12	inactive
36	NPEPL1	SID315459406	-0.98	inactive
37	SLCO2A1	SID315451511	0	inactive
38	SLCO2A1	SID315451511	0.58	inactive
39	SLCO2A1	SID315451511	0.64	inactive
40	SLCO2A1	SID315451511	0.6	inactive
41	OPRD1	SID315450361	1.33	inactive
42	OPRD1	SID315450361	-0.09	inactive
43	OPRD1	SID315450361	0	inactive
44	OPRD1	SID315450361	0.03	inactive
45	MLF1	SID315449982	-1.35	inactive
46	MLF1	SID315449982	-1.09	inactive
47	MLF1	SID315449982	-0.71	inactive
48	MLF1	SID315449982	6.55	active
49	RTN4	SID315458290	-1.83	active
50	RTN4	SID315458290	-1.2	inactive
51	RTN4	SID315458290	-1.66	active
52	RTN4	SID315458290	-1.01	inactive
53	PROSER1	SID315459700	0.11	inactive
54	PROSER1	SID315459700	0.85	inactive
55	PROSER1	SID315459700	1.37	inactive
56	PROSER1	SID315459700	1.68	inactive
57	RAPSN	SID315451052	-0.74	inactive
58	RAPSN	SID315451052	0.98	inactive
59	RAPSN	SID315451052	-0.29	inactive
60	RAPSN	SID315451052	1.15	inactive
61	HTR3C	SID315462902	-0.49	inactive
62	HTR3C	SID315462902	-0.66	inactive
63	HTR3C	SID315462902	-0.27	inactive
64	HTR3C	SID315462902	0.04	inactive
65	ROCK1	SID315451155	-0.49	inactive
66	ROCK1	SID315451155	-0.53	inactive
67	ROCK1	SID315451155	-0.44	inactive
68	ROCK1	SID315451155	-0.47	inactive
69	CKAP5	SID315453572	0.85	inactive
70	CKAP5	SID315453572	0.2	inactive
71	CKAP5	SID315453572	1.18	inactive
72	CKAP5	SID315453572	3.3	active
73	GRIK1	SID315449042	1.06	inactive
74	GRIK1	SID315449042	1.21	inactive
75	GRIK1	SID315449042	-0.09	inactive
76	GRIK1	SID315449042	2.28	inactive
77	WIPF2	SID315462317	-1.03	inactive
78	WIPF2	SID315462317	-1.21	inactive
79	WIPF2	SID315462317	-1.42	inactive
80	WIPF2	SID315462317	-0.57	inactive
81	FBXO9	SID315455748	0.51	inactive
82	FBXO9	SID315455748	-1.7	active
83	FBXO9	SID315455748	0.25	inactive
84	FBXO9	SID315455748	1.6	inactive
85	DENND2A	SID315455947	0.35	inactive
86	DENND2A	SID315455947	0.56	inactive
87	DENND2A	SID315455947	1.13	inactive
88	DENND2A	SID315455947	0.07	inactive
89	TCL1B	SID315453429	-1.21	inactive
90	TCL1B	SID315453429	0.26	inactive
91	TCL1B	SID315453429	-0.61	inactive
92	TCL1B	SID315453429	0.08	inactive
93	RBM42	SID315459243	-0.72	inactive
94	RBM42	SID315459243	-1.35	inactive
95	RBM42	SID315459243	-0.98	inactive
96	RBM42	SID315459243	-1.13	inactive
97	SQLE	SID315451624	-0.19	inactive
98	SQLE	SID315451624	0.01	inactive
99	SQLE	SID315451624	-0.58	inactive
100	SQLE	SID315451624	-0.24	inactive
101	SAP30L	SID315459383	-0.25	inactive
102	SAP30L	SID315459383	0.21	inactive
103	SAP30L	SID315459383	-0.13	inactive
104	SAP30L	SID315459383	0.66	inactive
105	FAM89B	SID315455376	0	inactive
106	FAM89B	SID315455376	-0.18	inactive
107	FAM89B	SID315455376	-0.83	inactive
108	FAM89B	SID315455376	1.16	inactive
109	ATF6B	SID315448085	0.43	inactive
110	ATF6B	SID315448085	-1.39	inactive
111	ATF6B	SID315448085	-1.05	inactive
112	ATF6B	SID315448085	-1.41	inactive

Sorted by “TNF reporter robust z-score” (descending): 10 of the entries above.
target gene	PubChem SID	TNF reporter robust z-score	outcome
OPRD1	SID315450361	1.33	inactive
SLCO2A1	SID315451511	0.64	inactive
SLCO2A1	SID315451511	0.6	inactive
SLCO2A1	SID315451511	0.58	inactive
OPRD1	SID315450361	0.03	inactive
SLCO2A1	SID315451511	0	inactive
OPRD1	SID315450361	0	inactive
OPRD1	SID315450361	-0.09	inactive
MLF1	SID315449982	-1.09	inactive
MLF1	SID315449982	-1.35	inactive
